Results taken from the supplement of paper PMC10849652.
This is one part of the list.

Chains of the proteins cited; added tags and fusions are not shown. Lines headed by an entry give the natural chain unless they say otherwise; changes in a name come on top.
UniProt Q8IUR0, whole entry, looked up: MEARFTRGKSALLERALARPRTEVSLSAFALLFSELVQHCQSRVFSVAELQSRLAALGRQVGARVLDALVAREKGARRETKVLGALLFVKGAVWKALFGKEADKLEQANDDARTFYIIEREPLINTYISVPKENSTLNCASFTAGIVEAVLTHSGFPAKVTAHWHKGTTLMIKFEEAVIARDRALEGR
UniProt Q9Y2L5: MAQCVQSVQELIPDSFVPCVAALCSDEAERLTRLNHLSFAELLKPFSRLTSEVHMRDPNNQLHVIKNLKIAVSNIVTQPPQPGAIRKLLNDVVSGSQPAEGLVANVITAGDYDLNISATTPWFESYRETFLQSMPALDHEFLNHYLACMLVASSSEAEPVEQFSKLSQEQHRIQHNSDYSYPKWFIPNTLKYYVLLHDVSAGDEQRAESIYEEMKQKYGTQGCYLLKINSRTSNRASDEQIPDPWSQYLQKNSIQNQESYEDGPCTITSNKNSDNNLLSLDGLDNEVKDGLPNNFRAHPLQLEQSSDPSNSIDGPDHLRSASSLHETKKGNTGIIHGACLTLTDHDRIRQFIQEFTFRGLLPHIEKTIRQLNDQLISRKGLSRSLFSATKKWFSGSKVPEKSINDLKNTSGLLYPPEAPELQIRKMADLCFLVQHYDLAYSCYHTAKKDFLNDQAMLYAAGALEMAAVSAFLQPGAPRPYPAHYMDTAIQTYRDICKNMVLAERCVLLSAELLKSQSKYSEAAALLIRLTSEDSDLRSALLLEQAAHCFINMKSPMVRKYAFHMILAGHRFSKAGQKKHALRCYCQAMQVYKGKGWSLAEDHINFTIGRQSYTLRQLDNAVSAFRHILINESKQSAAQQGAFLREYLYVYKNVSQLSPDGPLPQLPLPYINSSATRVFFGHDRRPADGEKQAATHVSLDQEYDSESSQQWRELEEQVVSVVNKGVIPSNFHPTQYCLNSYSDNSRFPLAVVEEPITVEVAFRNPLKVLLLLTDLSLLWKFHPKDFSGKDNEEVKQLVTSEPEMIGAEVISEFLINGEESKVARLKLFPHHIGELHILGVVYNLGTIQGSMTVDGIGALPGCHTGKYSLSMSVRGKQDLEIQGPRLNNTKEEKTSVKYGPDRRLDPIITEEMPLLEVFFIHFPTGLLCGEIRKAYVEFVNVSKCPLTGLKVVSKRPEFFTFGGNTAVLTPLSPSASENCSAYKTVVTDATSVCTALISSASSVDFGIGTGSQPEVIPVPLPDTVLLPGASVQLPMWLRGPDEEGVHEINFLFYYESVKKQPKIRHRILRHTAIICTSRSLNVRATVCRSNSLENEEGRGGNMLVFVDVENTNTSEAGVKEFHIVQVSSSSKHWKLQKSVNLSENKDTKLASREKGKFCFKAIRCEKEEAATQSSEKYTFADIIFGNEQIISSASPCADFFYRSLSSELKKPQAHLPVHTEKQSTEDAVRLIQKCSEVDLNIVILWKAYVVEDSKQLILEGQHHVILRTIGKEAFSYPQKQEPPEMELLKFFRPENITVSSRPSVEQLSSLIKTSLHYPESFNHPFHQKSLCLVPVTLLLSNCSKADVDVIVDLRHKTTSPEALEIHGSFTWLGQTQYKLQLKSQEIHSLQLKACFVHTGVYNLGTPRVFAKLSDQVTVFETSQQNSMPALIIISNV
UniProt Q5T7W7: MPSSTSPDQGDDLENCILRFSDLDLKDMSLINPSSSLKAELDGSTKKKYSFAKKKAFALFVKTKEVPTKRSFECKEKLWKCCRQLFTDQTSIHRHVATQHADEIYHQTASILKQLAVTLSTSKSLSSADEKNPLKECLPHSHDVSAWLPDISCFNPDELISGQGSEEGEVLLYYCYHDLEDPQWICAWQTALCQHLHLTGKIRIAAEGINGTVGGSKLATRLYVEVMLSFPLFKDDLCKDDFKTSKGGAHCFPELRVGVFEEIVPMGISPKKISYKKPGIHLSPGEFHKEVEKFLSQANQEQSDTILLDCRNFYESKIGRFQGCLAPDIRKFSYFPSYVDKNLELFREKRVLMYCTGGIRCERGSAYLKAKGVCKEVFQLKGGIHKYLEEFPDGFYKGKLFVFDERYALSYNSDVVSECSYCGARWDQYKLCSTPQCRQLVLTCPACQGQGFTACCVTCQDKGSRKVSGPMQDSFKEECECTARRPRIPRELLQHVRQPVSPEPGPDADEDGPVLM
UniProt Q99816: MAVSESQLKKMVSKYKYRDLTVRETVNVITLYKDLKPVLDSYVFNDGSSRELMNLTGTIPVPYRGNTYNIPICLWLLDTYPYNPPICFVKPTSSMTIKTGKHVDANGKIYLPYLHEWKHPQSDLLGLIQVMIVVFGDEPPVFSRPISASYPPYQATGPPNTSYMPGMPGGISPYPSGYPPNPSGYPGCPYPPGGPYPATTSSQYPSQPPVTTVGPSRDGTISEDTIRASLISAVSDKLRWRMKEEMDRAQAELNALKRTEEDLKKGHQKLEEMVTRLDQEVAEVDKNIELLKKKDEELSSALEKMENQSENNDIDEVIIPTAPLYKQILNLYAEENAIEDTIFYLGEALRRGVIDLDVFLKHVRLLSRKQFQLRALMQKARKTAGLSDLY
UniProt O15164: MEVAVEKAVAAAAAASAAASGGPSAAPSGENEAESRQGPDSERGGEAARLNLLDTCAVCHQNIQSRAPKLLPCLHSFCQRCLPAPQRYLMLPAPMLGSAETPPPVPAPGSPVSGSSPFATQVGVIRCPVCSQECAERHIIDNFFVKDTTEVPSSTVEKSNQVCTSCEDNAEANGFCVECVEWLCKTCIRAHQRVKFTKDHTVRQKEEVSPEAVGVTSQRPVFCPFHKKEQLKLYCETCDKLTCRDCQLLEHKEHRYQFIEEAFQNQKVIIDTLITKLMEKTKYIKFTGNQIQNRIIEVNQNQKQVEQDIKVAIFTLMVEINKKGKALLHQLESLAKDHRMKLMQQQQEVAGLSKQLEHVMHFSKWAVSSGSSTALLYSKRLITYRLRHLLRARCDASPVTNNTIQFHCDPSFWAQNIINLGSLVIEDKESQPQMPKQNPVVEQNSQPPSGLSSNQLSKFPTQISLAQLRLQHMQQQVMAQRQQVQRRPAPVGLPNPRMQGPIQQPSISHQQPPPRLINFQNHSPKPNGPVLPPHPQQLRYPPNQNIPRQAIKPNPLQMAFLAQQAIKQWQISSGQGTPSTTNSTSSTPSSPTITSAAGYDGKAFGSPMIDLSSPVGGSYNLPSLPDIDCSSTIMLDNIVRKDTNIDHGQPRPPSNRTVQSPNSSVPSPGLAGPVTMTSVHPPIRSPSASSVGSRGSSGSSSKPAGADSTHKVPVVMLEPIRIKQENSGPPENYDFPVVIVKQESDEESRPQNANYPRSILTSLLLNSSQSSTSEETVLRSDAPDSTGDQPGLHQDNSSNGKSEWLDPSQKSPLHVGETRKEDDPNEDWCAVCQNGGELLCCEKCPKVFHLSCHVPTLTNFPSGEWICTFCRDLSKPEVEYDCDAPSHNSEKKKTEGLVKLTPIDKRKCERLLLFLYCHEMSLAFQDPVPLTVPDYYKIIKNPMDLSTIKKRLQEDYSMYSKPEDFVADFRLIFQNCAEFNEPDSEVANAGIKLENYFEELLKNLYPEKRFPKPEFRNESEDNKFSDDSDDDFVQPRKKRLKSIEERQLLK
UniProt Q8WWH5: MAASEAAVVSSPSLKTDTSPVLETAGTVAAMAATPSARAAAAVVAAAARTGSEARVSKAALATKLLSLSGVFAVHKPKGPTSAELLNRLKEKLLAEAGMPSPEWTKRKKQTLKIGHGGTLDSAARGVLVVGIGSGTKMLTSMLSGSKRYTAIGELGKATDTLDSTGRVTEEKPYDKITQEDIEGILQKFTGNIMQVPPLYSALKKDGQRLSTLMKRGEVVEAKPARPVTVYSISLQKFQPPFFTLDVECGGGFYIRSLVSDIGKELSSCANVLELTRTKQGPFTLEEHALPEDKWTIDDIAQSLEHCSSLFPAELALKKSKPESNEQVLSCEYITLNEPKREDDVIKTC
UniProt Q9NXH9: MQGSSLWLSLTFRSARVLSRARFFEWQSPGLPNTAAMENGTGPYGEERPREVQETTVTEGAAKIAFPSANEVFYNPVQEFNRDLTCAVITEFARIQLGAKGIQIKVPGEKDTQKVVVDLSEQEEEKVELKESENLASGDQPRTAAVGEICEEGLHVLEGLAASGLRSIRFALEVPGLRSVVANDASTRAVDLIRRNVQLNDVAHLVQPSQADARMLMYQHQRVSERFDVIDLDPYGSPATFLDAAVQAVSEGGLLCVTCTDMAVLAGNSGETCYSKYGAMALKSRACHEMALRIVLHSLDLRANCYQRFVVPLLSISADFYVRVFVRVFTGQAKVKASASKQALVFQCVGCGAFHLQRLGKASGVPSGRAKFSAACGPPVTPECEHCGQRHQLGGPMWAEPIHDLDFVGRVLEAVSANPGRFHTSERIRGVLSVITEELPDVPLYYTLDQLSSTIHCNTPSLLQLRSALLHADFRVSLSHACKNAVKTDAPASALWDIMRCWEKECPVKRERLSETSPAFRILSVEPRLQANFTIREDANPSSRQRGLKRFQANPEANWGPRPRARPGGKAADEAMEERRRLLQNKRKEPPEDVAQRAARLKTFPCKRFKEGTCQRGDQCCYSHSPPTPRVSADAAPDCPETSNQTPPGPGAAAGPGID
UniProt Q5VTQ0: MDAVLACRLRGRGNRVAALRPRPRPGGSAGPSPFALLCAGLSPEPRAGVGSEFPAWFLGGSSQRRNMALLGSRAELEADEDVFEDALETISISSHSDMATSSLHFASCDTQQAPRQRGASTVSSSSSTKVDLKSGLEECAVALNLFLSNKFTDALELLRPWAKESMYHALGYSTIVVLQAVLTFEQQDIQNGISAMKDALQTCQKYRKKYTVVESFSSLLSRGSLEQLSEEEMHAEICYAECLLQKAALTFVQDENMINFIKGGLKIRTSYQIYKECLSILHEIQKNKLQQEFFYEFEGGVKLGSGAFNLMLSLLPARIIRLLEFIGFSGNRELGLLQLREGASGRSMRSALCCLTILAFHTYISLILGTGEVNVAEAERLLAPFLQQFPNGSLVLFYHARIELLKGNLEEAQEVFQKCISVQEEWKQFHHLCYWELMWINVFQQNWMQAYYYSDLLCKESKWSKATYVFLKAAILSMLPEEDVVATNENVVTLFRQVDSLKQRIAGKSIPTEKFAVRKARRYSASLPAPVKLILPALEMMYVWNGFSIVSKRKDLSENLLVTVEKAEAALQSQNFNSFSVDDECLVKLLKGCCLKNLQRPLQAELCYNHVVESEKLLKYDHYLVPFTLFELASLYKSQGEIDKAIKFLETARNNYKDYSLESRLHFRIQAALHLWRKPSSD
UniProt Q7Z4L5: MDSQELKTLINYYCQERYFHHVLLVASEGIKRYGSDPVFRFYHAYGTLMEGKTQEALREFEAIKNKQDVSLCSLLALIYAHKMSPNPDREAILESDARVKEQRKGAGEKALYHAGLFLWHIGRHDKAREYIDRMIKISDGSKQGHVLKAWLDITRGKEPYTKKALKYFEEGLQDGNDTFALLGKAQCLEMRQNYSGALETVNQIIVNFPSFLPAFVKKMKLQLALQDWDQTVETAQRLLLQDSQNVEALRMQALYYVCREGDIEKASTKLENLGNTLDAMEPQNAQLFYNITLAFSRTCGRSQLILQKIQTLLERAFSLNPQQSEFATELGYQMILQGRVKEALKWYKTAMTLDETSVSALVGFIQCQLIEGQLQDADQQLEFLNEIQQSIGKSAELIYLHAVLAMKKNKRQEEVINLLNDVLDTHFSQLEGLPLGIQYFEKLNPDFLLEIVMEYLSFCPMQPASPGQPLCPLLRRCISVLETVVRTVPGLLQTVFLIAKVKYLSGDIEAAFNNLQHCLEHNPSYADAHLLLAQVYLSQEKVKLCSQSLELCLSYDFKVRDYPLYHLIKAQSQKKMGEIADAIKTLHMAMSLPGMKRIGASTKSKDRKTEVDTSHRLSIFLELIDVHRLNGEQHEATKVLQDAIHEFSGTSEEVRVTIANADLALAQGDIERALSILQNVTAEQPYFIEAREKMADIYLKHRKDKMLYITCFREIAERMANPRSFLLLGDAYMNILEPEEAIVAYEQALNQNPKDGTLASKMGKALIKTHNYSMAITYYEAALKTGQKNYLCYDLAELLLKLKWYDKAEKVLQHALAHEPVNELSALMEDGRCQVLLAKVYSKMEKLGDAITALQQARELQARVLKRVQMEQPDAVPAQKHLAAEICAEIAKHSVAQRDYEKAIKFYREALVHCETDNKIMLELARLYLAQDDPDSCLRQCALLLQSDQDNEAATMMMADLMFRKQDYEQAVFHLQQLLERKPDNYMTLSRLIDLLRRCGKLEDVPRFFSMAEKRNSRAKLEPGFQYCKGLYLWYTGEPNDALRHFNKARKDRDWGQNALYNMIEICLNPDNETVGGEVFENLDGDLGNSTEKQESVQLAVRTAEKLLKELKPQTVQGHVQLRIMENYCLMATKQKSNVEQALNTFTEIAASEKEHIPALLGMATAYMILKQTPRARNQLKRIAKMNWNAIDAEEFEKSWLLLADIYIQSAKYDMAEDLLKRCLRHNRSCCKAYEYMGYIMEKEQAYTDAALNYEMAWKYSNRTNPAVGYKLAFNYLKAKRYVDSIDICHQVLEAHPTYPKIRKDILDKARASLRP

Assays:
Test in all cases: log2 fold change, soluble protein after heating vs DMSO (PISA); higher = thermal stabilisation; K562 lysate, 10 uM; active = over 0.2 and 3.5 SD of the protein, either way, in both replicates (recomputed)
erlotinib = compound: C#Cc1cccc(Nc2ncnc3cc(OCCOC)c(OCCOC)cc23)c1 [erlotinib]
Method in brief: (§1)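 K562 pellets were dounce-homogenised in PBS pH 7.4 with 1 mM MgCl2, and the crude extract at 1 mg/mL protein was treated with 10 μM compound for 30 min. Aliquots were heated for 3 min across 48°C-58°C, pooled, and brought to 0.5% NP-40 at 4°C; soluble protein was the supernatant after 21,000xg for 90 min. Soluble protein was quantified by TMTpro 16plex LC-MS/MS with channel sums equalised, and reported as log2 fold change in thermal stability against DMSO controls, with values from duplicates.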

[1] = compound: C/C(=N\NC(=O)C1=CC(=CC=C1)S(=O)(=O)N2CCOCC2)/C3=C(C=CC(=C3)Cl)O
Method in brief: as §1

[2] = compound: C1=CC(=CC=C1C2=NC3=C(N2)C=C(C=C3)C(=O)N)OC4=CC=C(C=C4)Cl
Method in brief: as §1

[3] = compound: C1=CC2=C(C=CC(=C2)/C=C\3/C(=O)NC(=NCC4=CC=CS4)S3)N=C1
Method in brief: as §1

[4] = compound: C1=CC2=NC=CN=C2C=C1/C=C/3\C(=O)NC(=O)S3
Method in brief: as §1

[5] = compound: C1=CC=C(C=C1)C2=NC(=C(N2)C3=CC=NC=C3)C4=CC(=C(C=C4)Cl)O
Method in brief: as §1

[6] = compound: C1=CC=C2C(=C1)C3=NNC4=CC=CC(=C43)C2=O
Method in brief: as §1

[7] = compound: C1CCN(C1)C(=O)NC2=CC=CC(=C2)NC3=NC=C(C(=N3)NCCC4=CN=CN4)Br
Method in brief: as §1

[8] = compound: C1CN(CCC1(CC2=CC=C(C=C2)Cl)N)C3=NC=NC4=C3C=CN4
Method in brief: as §1

IRAK-1-4 Inhibitor I = compound: C1COCCN1CCN2C3=CC=CC=C3N=C2NC(=O)C4=CC(=CC=C4)[N+](=O)[O-] [IRAK-1-4 Inhibitor I]
Method in brief: as §1

Measured: log2 fold change

TSEN34 (UniProt Q9BSV6)
inactive: erlotinib 0.019 | [1] -0.055 | [2] 0.034 | [3] 0 | [4] 0.004 | [5] 0.02 | [6] -0.031 | [7] -0.039 | [8] -0.01 | IRAK-1-4 Inhibitor I 0.008

TRAFD1 (UniProt O14545)
inactive: erlotinib 0.002 | [1] -0.062 | [2] 0.026 | [3] 0.026 | [4] 0.012 | [5] -0.062 | [6] 0.023 | [7] -0.018 | [8] -0.012 | IRAK-1-4 Inhibitor I 0

TRIM4 (UniProt Q9C037)
inactive: erlotinib 0.051 | [1] -0.13 | [2] -0.031 | [3] 0.026 | [4] -0.011 | [5] 0.083 | [6] 0.043 | [7] -0.087 | [8] -0.007 | IRAK-1-4 Inhibitor I -0.003

TTMP isoform 3 (UniProt Q5BVD1)
inactive: erlotinib 0.121 | [1] -0.173 | [2] -0.023 | [3] -0.106 | [4] -0.026 | [5] -0.026 | [6] -0.08 | [7] -0.05 | [8] 0.086 | IRAK-1-4 Inhibitor I 0.193

Two successive records out of the list so far, quoted:
TRAFD1 (UniProt O14545)
inactive: erlotinib 0.002 | [1] -0.062 | [2] 0.026 | [3] 0.026 | [4] 0.012 | [5] -0.062 | [6] 0.023 | [7] -0.018 | [8] -0.012 | IRAK-1-4 Inhibitor I 0

TRIM4 (UniProt Q9C037)
inactive: erlotinib 0.051 | [1] -0.13 | [2] -0.031 | [3] 0.026 | [4] -0.011 | [5] 0.083 | [6] 0.043 | [7] -0.087 | [8] -0.007 | IRAK-1-4 Inhibitor I -0.003

Next part:

TRAPPC5 (UniProt Q8IUR0)
inactive: erlotinib 0 | [1] 0.019 | [2] -0.025 | [3] 0.037 | [4] -0.025 | [5] -0.05 | [6] -0.048 | [7] -0.018 | [8] -0.007 | IRAK-1-4 Inhibitor I -0.054

TRNT1 (UniProt Q96Q11)
inactive: erlotinib 0 | [1] -0.081 | [2] 0.03 | [3] 0.04 | [4] -0.036 | [5] -0.025 | [6] -0.007 | [7] 0.008 | [8] 0.012 | IRAK-1-4 Inhibitor I -0.015

TSC22D1 (UniProt Q15714)
inactive: erlotinib 0.038 | [1] -0.015 | [2] 0.048 | [3] -0.014 | [4] -0.048 | [5] 0.013 | [6] 0.03 | [7] -0.008 | [8] 0.044 | IRAK-1-4 Inhibitor I -0.018

TRMT5 (UniProt Q32P41)
inactive: erlotinib 0.007 | [1] 0.077 | [2] -0.071 | [3] 0.076 | [4] 0.016 | [5] -0.016 | [6] -0.1 | [7] 0.014 | [8] 0.012 | IRAK-1-4 Inhibitor I -0.026

TSPAN4 (UniProt O14817)
inactive: erlotinib 0.062 | [1] -0.098 | [2] -0.003 | [3] -0.048 | [5] -0.391 | [6] -0.137 | [7] 0.039 | [8] -0.022 | IRAK-1-4 Inhibitor I 0.196

TRAPPC8 (UniProt Q9Y2L5)
inactive: erlotinib 0.016 | [1] 0.004 | [2] 0.015 | [3] -0.019 | [4] -0.024 | [5] -0.023 | [6] -0.03 | [7] -0.005 | [8] 0.007 | IRAK-1-4 Inhibitor I 0.004

TSTD2 (UniProt Q5T7W7)
inactive: erlotinib 0.045 | [1] -0.11 | [2] -0.013 | [3] 0.177 | [4] 0.005 | [5] 0.15 | [6] 0.031 | IRAK-1-4 Inhibitor I -0.031

TSG101 (UniProt Q99816)
inactive: erlotinib 0.034 | [1] -0.059 | [2] -0.001 | [3] -0.023 | [4] 0.002 | [5] -0.009 | [6] -0.005 | [7] 0 | [8] 0.039 | IRAK-1-4 Inhibitor I -0.01

TRIP10 isoform 2 (UniProt Q15642)
inactive: erlotinib 0.067 | [1] -0.053 | [2] 0.034 | [3] 0.036 | [4] -0.048 | [5] 0.019 | [6] 0.035 | [7] 0.011 | [8] -0.079 | IRAK-1-4 Inhibitor I -0.078

TRIM24 (UniProt O15164)
inactive: erlotinib 0.111 | [1] -0.011 | [2] -0.026 | [3] 0.025 | [4] -0.018 | [5] 0.016 | [6] -0.02 | [7] -0.014 | [8] -0.024 | IRAK-1-4 Inhibitor I 0.025

TRIM25 (UniProt Q14258)
inactive: erlotinib -0.01 | [1] -0.024 | [2] 0.028 | [3] -0.004 | [4] -0.028 | [5] 0.032 | [6] 0.008 | [7] 0.064 | [8] 0.021 | IRAK-1-4 Inhibitor I -0.009

TTC5 (UniProt Q8N0Z6)
inactive: erlotinib -0.015 | [1] -0.089 | [2] -0.014 | [3] -0.034 | [4] 0.041 | [5] 0.022 | [6] 0.016 | [7] 0.017 | [8] 0.033 | IRAK-1-4 Inhibitor I -0.008

TTC19 (UniProt Q6DKK2)
inactive: erlotinib 0.013 | [1] 0.081 | [2] 0.007 | [3] 0.004 | [4] 0.011 | [5] 0.019 | [6] 0.009 | [7] -0.006 | [8] 0.018 | IRAK-1-4 Inhibitor I -0.012

TRUB1 (UniProt Q8WWH5)
inactive: erlotinib 0.036 | [1] 0.065 | [2] -0.079 | [3] 0.034 | [4] -0.031 | [5] 0.012 | [6] 0.007 | [7] -0.017 | [8] 0.031 | IRAK-1-4 Inhibitor I 0.004

TSC1 (UniProt Q92574)
inactive: erlotinib 0.047 | [1] 0.005 | [2] 0.106 | [3] -0.189 | [4] 0.062 | [5] -0.026 | [6] 0.058 | [7] 0.049 | [8] 0.03 | IRAK-1-4 Inhibitor I 0.012

TRMT1 (UniProt Q9NXH9)
inactive: erlotinib -0.01 | [1] -0.011 | [2] 0.005 | [3] -0.006 | [4] 0.01 | [5] 0 | [6] 0.015 | [7] -0.023 | [8] -0.009 | IRAK-1-4 Inhibitor I 0.003

TSPO (UniProt P30536)
inactive: erlotinib -0.101 | [1] 0.024 | [2] -0.034 | [3] -0.071 | [4] -0.024 | [5] 0.002 | [6] -0.057 | [7] -0.05 | [8] -0.019 | IRAK-1-4 Inhibitor I 0.04

TSR1 (UniProt Q2NL82)
inactive: erlotinib 0.037 | [1] 0.023 | [2] -0.012 | [3] 0.032 | [4] -0.005 | [5] 0.013 | [6] -0.001 | [7] -0.001 | [8] 0.013 | IRAK-1-4 Inhibitor I -0.008

TRIO (UniProt O75962)
inactive: erlotinib 0.061 | [1] -0.049 | [2] 0.075 | [3] -0.033 | [4] -0.043 | [6] 0.007 | [7] 0.059 | [8] 0.05

TSC22D4 (UniProt Q9Y3Q8)
inactive: erlotinib 0.008 | [1] 0.002 | [2] 0.021 | [3] 0.012 | [4] -0.014 | [5] -0.043 | [6] -0.02 | [7] -0.026 | [8] 0.022 | IRAK-1-4 Inhibitor I -0.005

TTC39B (UniProt Q5VTQ0)
inactive: erlotinib -0.016 | [1] 0.064 | [2] -0.048 | [3] -0.042 | [4] 0.208 | [5] -0.168 | [6] 0.025 | IRAK-1-4 Inhibitor I 0.002

TSEN15 (UniProt Q8WW01)
inactive: erlotinib 0.029 | [1] 0.007 | [2] 0.023 | [3] 0.038 | [4] 0.061 | [5] 0.006 | [6] -0.036 | [7] 0.016 | [8] -0.016 | IRAK-1-4 Inhibitor I -0.01

TRPT1 isoform 4 (UniProt Q86TN4)
inactive: erlotinib 0.101 | [1] -0.127 | [2] -0.055 | [3] 0.066 | [4] -0.033 | [5] 0.143 | [6] 0.038 | IRAK-1-4 Inhibitor I -0.126

TRIM58 (UniProt Q8NG06)
inactive: erlotinib -0.027 | [1] 0.076 | [2] -0.038 | [3] 0.051 | [4] 0.012 | [5] 0.006 | [6] -0.112 | [7] -0.041 | [8] 0.069 | IRAK-1-4 Inhibitor I -0.024

TTC28 (UniProt Q96AY4)
inactive: erlotinib -0.097 | [1] 0.157 | [2] -0.006 | [3] -0.104 | [4] 0.154 | [6] -0.073

TTC21B (UniProt Q7Z4L5)
inactive: erlotinib 0.17 | [1] 0.1 | [2] 0.082 | [3] -0.154 | [4] -0.08 | [6] -0.075 | [7] 0.017 | [8] 0.147

TTC1 (UniProt Q99614)
inactive: erlotinib -0.026 | [1] -0.05 | [2] 0.021 | [3] 0.004 | [4] -0.044 | [5] 0.011 | [6] 0.004 | [7] -0.028 | [8] -0.024 | IRAK-1-4 Inhibitor I -0.024
